“And” between values parts separate entries of the source, which are not always exact repeats. Identical values can stand only once. The list shows a part of the results. Further columns of the screen follow, without active or inactive calls. For part of these data: Most of these compounds were active or inconclusive in the main read-out, so they are no random draw. For part of these data: The note in brackets gives the kind of curve behind each potency; many fits are weak.
Legend:
[1] = Validation of Assay for Modulators of Lamin A Splicing (AID 1459); details: Lamin A splicing dual RFP/GFP fluorescence reporter, ratio
Method in brief: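 Readout: ratio of GFP (500-530 nm) to RFP (575-640 nm) total object intensity by 488 nm laser-scanning cytometry after 48 hrs. Cells were HeLa S3 clones carrying lamin A-EGFP minigene plus DsRed2 viability reporter; vehicle 0.5% DMSO final.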

[2] = qHTS Assay for Lipid Storage Modulators (AID 1519); details: Drosophila S3 cells, BODIPY lipid droplet/cell ratio, laser cytometry, cells loaded with oleic acid
Method in brief: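 Cells seeded at 5,000 per well were treated with compounds over a concentration series and loaded with oleic acid (400 uM, as added). Lipid droplet fluorescence (488 nm excitation, 500-530 nm channel) was read by laser-scanning cytometry and normalized to 20 uM Triacsin C.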

[3] = qHTS Assay for Modulators of Human Peripheral Myelin Protein 22 (PMP22) Expression/Activity (AID 1967); details: Cell-based PMP22 reporter, dual-color luciferase ratio
Method in brief: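 Mouse MSC80 Schwann line, Pmp22 promoter–CBG68 reporter, EF-alpha–CBR internal control. 24h compound exposure, 37 °C/5% CO2, DMEM + 10% FBS. Readout: corrected green/red luminescence ratio, normalized to untreated cells; concentration-response curves fitted and classified.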

[4] = qHTS Validation Assay to Find Inhibitors of Chronic Active B-Cell Receptor Signaling (AID 485345); details: ABC-DLBCL cells, chronic BCR signaling reporter
Method in brief: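 TMD8 ABC-DLBCL cells with dox-inducible green luciferase–IκBα fusion and red native luciferase; compounds 46 uM–3 nM, 4 h at 37C with doxycycline in 0.5% FBS IMDM. Green/red ratio normalized to basal and 10 uM MG-132.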

[5] = Nrf2 qHTS screen for inhibitors: Validation (AID 493153); details: A549 ARE-Fluc reporter, 18-24 h; AC50: CellTiter-Fluor fluorescence read, measured here: cytotoxicity CellTiter-Fluor AC50; viability change: measured here: cytotoxicity max response
Method in brief: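 A549 ARE_Fluc, 5% FBS OPTI-MEM; cpd titration, 18-24 h, 37°C/5% CO2. Read 1: CellTiter-Fluor (Ex 405/Em 525), cytotox. Read 2: luciferase lum, Nrf2 activity.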

[6] = qHTS assay for small molecule antagonists of androgen receptor signaling (AID 588516); details: AR-UAS-bla HEK293, beta-lactamase ratio, antagonist mode, 16 h; measured here: W460 blue channel fit
Method in brief: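 Antagonist-mode qHTS: inhibition of R1881 (10 nM)-driven beta-lactamase expression in GripTite HEK 293 cells is measured after 16 h; values are Hill-derived IC50s normalized between R1881 and DMSO wells.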

[7] = qHTS assay for small molecule antagonists of glucocorticoid receptor signaling (AID 588533); details: HeLa MMTV-bla, GRE beta-lactamase ratio, antagonist mode, 18 h; measured here: W530 channel AC50
[8] = qHTS assay for small molecule antagonists of peroxisome proliferator-activated receptor gamma signaling (AID 588537); details: HEK293 PPARg-UAS-bla, beta-lactamase ratio, antagonist mode; measured here: W460 blue channel
Method in brief: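 Compounds are tested as concentration series for inhibition of rosiglitazone-driven (50 nM) reporter expression in GeneBLAzer PPAR-gamma-UAS-bla HEK293 cells. After 16 h at 37 C, CCF4 substrate is added for 2 h at room temperature and blue/green fluorescence is measured.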

[9] = qHTS assay for small molecule agonists of retinoid X receptor alpha signaling (AID 588544); details: HEK293T RXRa-UAS-bla, beta-lactamase reporter, 18 h; 530 nm emission
[10] = S16 Schwann cell PMP22 intronic element beta-lactamase assay (AID 624044); details: S16 rat Schwann cells, PMP22 element beta-lactamase FRET, 24 h; measured here: 460 nm blue channel
Method in brief: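 Beta-lactamase reporter under a PMP22 intronic regulatory element in stable S16 rat Schwann cells; 24 h compound exposure. 460 nm blue signal normalized between DMSO (0%) and potassium clavulanate, with 535 nm FRET tracking viability; curves classed by r2 and response.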

[11] = A High-Content qHTS Against Drug Library for the Identification of Small Molecules that Inhibit DYT1 Early Onset Primary Dystonia-Associated Cell Pathology (AID 1645839); details: HEK293 Flp-In EGFP-delE TorsinA, punctate imaging, 48 h; measured here: cell count cytotoxicity
Method in brief: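 Induced EGFP-delE TorsinA cells are imaged after 48 h of compound treatment. Punctate fusion-protein distribution gives the %pathology value, while nuclei counts flag toxicity. Wild-type EGFP-hTOR1A cells define the normal pattern.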

[12] = qHTS drug screen for cell cycle checkpoint inhibitors in PARPi-resistant BRCA-mutant ovarian cancer cell lines. (AID 1963452); details: PEO1/OlaR viability, CellTiter-Glo luminescence, 96 h
Method in brief: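 PEO1, PEO4 and PEO1/OlaR ovarian cancer cells, 600 per well, exposed 96 h at 37C to a dilution series. Viability read by CellTiter-Glo luminescence, normalized to DMSO and empty wells; activity summarized as Z-AUC.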

[13] = qHTS for identification of novel therapeutic agents for treatment of microphthalmiaassociated transcription factor (MiT) renal cell carcinoma (RCC) (AID 1963991); details: CellTiter-Glo, 48 h; for z-score: stronger effect = lower value;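 on z-score: curves scaled with 100% = DMSO viability and 0% = empty wells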
Method in brief: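 UOK109/UOK124/UOK145 (TFE3 fusions, three partners); 500 cells/well; MIPE v4.0, 1912 cpds, 11 conc.; 48 h, 37 C; CellTiter-Glo, 15 min RT; lum. Norm.: DMSO 100%, empty 0%.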

[14] = measured here: cell count channel max response
[15] = measured here: cell number channel AC50
[16] = measured here: lipid (BODIPY) channel AC50
[17] = measured here: lipid channel max response
[18] = measured here: green reporter channel AC50, mouse Pmp22 promoter in mouse Schwann cells
[19] = measured here: red reporter channel AC50, EF-alpha promoter control reporter in MSC80 mouse Schwann cells
[20] = measured here: CBR control luciferase (viability counter)
[21] = measured here: PEO1 parental viability
[22] = TFE3-RCC viability, measured here: UOK124 cell viability
[23] = TFE3-RCC viability, measured here: UOK145 cell viability

S=C(S)N1CCCC1
AC50 ([1]; measured here: GFP channel): 631 nM [falling, full curve] | AC50 ([1]; measured here: RFP channel): 501 nM [falling, full curve, poor fit] | max response [2, 14]: 64.4% and 35.7% | AC50 [2, 15]: 15.8 µM [rising, full curve] and 39.8 µM [rising, single point] | AC50 [2, 16]: 14.1 µM [rising, partial curve, poor fit] and 39.8 µM [rising, single point] | max response [2, 17]: 15.4% and 34.2% | AC50 [3, 18]: 6010 nM [falling, full curve]

C=C(C)[C@H]1Cc2c(ccc3c2O[C@@H]2COc4cc(OC)c(OC)cc4[C@@H]2C3=O)O1
AC50 ([1]; measured here: GFP channel): 5620 nM [falling, single point] | AC50 ([1]; measured here: RFP channel): 2820 nM [falling, full curve] | max response [2, 14]: 40.4% and -8.11% | AC50 [2, 15]: 14.1 µM [rising, partial curve, poor fit] | AC50 [2, 16]: 794 nM [falling, full curve] and 20 nM [falling, full curve] | max response [2, 17]: -57.1% and -82.6% | AC50 [3, 18]: 60.1 nM [falling, full curve] | AC50 [3, 19]: 47.8 nM [falling, full curve] | AC50 ([4]; measured here: CBG/CBR ratio read-out): 18400 nM [falling, partial curve] | AC50 [4, 20]: 25900 nM [rising, single point] | AC50 [5]: 2310 nM [falling, partial curve] | viability change [5]: -33.3% | AC50 [6]: 20000 nM [falling, partial curve, poor fit] | AC50 [7]: 50.1 nM [falling, full curve, poor fit] | AC50 [8]: 39800 nM [falling, partial curve, poor fit] | max response [9]: 31.9% | AC50 [10]: 7.07 nM [falling, full curve, poor fit] | AC50 [11]: 562 nM [falling, full curve, poor fit] | AC50 [12, 21]: 15.5 nM [falling, full curve] | AC50 ([12]; measured here: PEO4 viability): 87.1 nM [falling, full curve] | z-score ([13]; TFE3-RCC UOK109 viability, measured here: UOK109 Z-AUC): -0.196 | z-score ([13]; TFE3-RCC viability, measured here: UOK124 Z-AUC): -1.03 | AC50 [13, 22]: 4180 nM [falling, partial curve] | z-score ([13]; TFE3-RCC viability, measured here: UOK145 Z-AUC): -0.141 | AC50 [13, 23]: 2960 nM [falling, full curve]

COc1ccc2c(c1)CCC1C2CC[C@@]2(C)C1CC[C@@H]2NCCCCCCN1C(=O)C=CC1=O (stereo not given in full)
AC50 ([1]; measured here: GFP channel): 22400 nM [falling, single point] | AC50 ([1]; measured here: RFP channel): 10000 nM [falling, partial curve]

CC[C@@]1(O)C(=O)OCc2c1cc1n(c2=O)Cc2cc3ccccc3nc2-1
AC50 ([1]; measured here: GFP channel): 15.8 nM [falling, full curve, poor fit] | AC50 ([1]; measured here: RFP channel): 15.8 nM [falling, full curve, poor fit] | max response [2, 14]: -20.8% and 25.8% and -65.9% | AC50 [2, 15]: 22.4 µM [falling, partial curve, poor fit] | AC50 [2, 16]: 200 nM [falling, full curve, poor fit] and 20 µM [falling, partial curve, poor fit] | max response [2, 17]: -32.9% and 25.2% and -67.6% | AC50 [3, 18]: 2130 nM [falling, full curve] | AC50 [3, 19]: 239 nM [falling, full curve] | AC50 [4, 20]: 1460 nM [falling, full curve] | AC50 [5]: 366 nM [falling, partial curve, poor fit] | viability change [5]: -22.3% | AC50 [12, 21]: 17.4 nM [falling, full curve] | AC50 ([12]; measured here: PEO4 viability): 54.9 nM [falling, full curve] | AC50 [13, 22]: 118 nM [falling, full curve] | AC50 [13, 23]: 66.2 nM [falling, full curve]

CN[C@@H]1C[C@@H](c2ccc(Cl)c(Cl)c2)c2ccccc21
AC50 ([1]; measured here: GFP channel): 15800 nM [falling, partial curve] | AC50 ([1]; measured here: RFP channel): 17800 nM [falling, partial curve] | max response [2, 14]: -37.9% | AC50 [2, 15]: 17.8 µM [falling, partial curve, poor fit] | AC50 [2, 16]: 17.8 µM [falling, partial curve, poor fit] | max response [2, 17]: -37.4% | AC50 [3, 18]: 30100 nM [falling, full curve] | AC50 [3, 19]: 23900 nM [falling, full curve] | AC50 [4, 20]: 20600 nM [falling, partial curve]

C/C(O)=C(\C#N)C(=O)Nc1cc(Br)ccc1Br
AC50 ([1]; measured here: GFP channel): 22400 nM [falling, partial curve] | AC50 ([1]; measured here: RFP channel): 22400 nM [falling, partial curve] | max response [2, 14]: -29% | AC50 [2, 15]: 1.12 µM [falling, full curve, poor fit] | AC50 [2, 16]: 1.12 µM [falling, full curve, poor fit] | max response [2, 17]: -29.7% | AC50 [4, 20]: 29100 nM [falling, single point] | viability change [5]: -11.3%

CCCCCCCCCCCCCC(=O)O[C@@H]1[C@@H](C)[C@@]2(O)[C@@H](C=C(CO)C[C@@]3(O)C(=O)C(C)=C[C@@H]23)C2C(C)(C)[C@@]21OC(C)=O (stereo not given in full)
AC50 ([1]; measured here: GFP channel): 17.8 nM [rising, full curve, poor fit] | AC50 ([1]; measured here: RFP channel): 17.8 nM [rising, full curve, poor fit] | max response [2, 14]: 61.7% | AC50 [2, 15]: 44.7 µM [rising, single point] | AC50 [2, 16]: 44.7 µM [rising, single point] | max response [2, 17]: 49.7% | AC50 [3, 18]: 53600 nM [falling, partial curve] | AC50 [3, 19]: 42600 nM [falling, partial curve] | AC50 [4, 20]: 51.7 nM [rising, full curve]

Reference: PubChem BioAssay (NCATS)
